The values that follow come from paper PMC5450843.

Sequences of proteins named here, by UniProt entry; tags and fusion partners are left off. A change or cut given only in a name is not applied to a line headed by its entry.
UniProt Q64317: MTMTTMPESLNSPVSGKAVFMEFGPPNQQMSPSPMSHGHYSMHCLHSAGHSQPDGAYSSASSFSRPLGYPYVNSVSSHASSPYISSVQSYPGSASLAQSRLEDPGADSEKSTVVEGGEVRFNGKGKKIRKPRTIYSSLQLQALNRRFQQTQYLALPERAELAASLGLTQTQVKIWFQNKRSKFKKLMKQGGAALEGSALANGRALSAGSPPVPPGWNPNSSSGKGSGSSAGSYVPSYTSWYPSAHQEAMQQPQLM
UniProt P40764: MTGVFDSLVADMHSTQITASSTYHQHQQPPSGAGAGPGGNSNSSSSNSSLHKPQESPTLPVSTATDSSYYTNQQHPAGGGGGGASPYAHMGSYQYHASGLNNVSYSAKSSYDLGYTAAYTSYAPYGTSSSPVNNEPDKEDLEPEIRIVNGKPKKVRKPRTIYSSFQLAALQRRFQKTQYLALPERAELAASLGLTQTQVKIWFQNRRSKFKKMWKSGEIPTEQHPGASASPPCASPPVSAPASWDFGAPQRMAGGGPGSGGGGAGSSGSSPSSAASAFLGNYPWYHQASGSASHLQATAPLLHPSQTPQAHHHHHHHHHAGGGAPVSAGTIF

Construct, isoform or probe ends are uncertain for at least one entry.

One data set concerns the target DLX1 (UniProt Q64317). Kind of data set: EMSA. Particulars: 1 ug poly-dI-dC, competed by 100-fold unlabeled probe, supershifted by DLX1 antibody, not by control IgG; EMSA: 20% glycerol, 5 mM MgCl2, 2.5 mM EDTA, 2.5 mM DTT, 250 mM NaCl, 50 mM Tris-HCl pH 7.5, 1 ug poly-dI-dC, 30 min at room temperature; recombinant protein; label: 32P (alpha-32P-dATP, Klenow fill-in); probe letters rebuilt from the primers and the genome; part of a longer molecule. On the technique in general: Mobility shift assays separate free from complexed probe on a gel.

The target of a further data set is DLX2 (UniProt P40764). Kind of data set: EMSA. Particulars: 1 ug poly-dI-dC, competed by 100-fold unlabeled probe, supershifted by DLX2 antibody, not by control IgG; EMSA: 20% glycerol, 5 mM MgCl2, 2.5 mM EDTA, 2.5 mM DTT, 250 mM NaCl, 50 mM Tris-HCl pH 7.5, 1 ug poly-dI-dC, 30 min at room temperature; recombinant protein; label: 32P (alpha-32P-dATP, Klenow fill-in); probe letters rebuilt from the primers and the genome; part of a longer molecule.

Regarding “CTCAGTGTTGAGTGAGGAAGGACCACATGCCCAAAGAAATTCTGAGCAGAGTAGGAAACATCAGGAAGACAAATGTTTTCCTCCACCTAATTCCCCCAGACTGTTACAGGGAGTGAGGTACAGAAAGAGAAAAAACTTTGTGGTATTTCAACTCCTAAGTAGTGTGTTTATGTGTATAAATAAAGGCACAAAAGATACCAAGGAGGGAAACCGCATGGGGAAGGATTCTTCCCTTTCATTAGGTGTCTAATTAGATGTAAAGTCAAAAGCAGCCCTGAGGACTTGCCCAAACACTATTGTGGCAACAGTCTGCTGAAC (double strand) [3bP4 (S4-pro) Brn3b promoter fragment]”, the binding result with DLX1 and with DLX2 was “binds” in each case.
